Results from doi:10.1101/2023.02.03.526950.
No constants are given. Whether binding was seen depends on the method and setting. Binding seen in cells or lysates may run through a third protein. Some results given as binding are weak or reduced against the parent protein; the word gives no strength.

Protein sequences, listed by entry. Tags and fused reporters are not part of them.
UniProt O43294: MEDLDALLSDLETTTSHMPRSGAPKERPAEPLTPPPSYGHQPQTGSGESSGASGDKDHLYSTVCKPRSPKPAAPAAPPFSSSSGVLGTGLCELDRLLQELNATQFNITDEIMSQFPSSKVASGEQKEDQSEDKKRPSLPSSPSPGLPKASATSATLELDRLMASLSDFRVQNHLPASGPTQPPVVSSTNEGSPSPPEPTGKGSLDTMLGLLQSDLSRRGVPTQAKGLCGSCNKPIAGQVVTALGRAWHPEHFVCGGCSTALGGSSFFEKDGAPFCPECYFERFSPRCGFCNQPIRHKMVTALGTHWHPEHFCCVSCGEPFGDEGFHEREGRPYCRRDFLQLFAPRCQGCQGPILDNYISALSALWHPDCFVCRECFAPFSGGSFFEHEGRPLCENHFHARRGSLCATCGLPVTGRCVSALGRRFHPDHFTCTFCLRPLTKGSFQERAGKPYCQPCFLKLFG

Columns and labels:
[1] = target: T1, ULK1, expressed in HEK293T cells (UniProt O75385); assay: co-IP
T1 sequence: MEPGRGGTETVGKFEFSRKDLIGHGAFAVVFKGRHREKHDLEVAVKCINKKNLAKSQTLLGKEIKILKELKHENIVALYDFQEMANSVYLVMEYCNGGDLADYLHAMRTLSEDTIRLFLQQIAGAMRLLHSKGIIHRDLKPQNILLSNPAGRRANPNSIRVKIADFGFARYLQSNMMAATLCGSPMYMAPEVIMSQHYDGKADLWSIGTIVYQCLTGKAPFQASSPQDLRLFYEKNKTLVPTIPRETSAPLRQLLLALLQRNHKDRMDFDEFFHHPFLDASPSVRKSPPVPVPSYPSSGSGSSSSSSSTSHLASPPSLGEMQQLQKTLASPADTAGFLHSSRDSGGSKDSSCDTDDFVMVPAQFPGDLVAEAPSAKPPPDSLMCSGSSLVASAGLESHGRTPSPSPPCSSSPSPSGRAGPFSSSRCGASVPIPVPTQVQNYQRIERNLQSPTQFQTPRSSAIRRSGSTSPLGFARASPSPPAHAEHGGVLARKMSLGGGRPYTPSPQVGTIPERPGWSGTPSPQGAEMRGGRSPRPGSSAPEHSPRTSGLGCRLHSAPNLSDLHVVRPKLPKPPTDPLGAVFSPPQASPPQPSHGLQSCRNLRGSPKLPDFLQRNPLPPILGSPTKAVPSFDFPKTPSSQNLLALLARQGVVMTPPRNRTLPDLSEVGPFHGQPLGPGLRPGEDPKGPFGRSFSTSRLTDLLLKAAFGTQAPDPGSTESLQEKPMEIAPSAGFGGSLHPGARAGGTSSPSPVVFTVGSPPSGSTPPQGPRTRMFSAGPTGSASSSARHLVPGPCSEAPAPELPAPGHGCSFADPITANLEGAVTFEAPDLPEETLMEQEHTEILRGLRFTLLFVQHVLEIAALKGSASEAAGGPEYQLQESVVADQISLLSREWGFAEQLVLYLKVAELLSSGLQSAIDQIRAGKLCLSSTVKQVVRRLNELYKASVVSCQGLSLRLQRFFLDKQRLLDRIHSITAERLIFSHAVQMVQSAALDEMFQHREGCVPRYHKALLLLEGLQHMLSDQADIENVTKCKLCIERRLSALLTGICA

[2] = target: T2, ULK2, expressed in HEK293T cells (UniProt Q8IYT8); assay: co-IP
T2 sequence: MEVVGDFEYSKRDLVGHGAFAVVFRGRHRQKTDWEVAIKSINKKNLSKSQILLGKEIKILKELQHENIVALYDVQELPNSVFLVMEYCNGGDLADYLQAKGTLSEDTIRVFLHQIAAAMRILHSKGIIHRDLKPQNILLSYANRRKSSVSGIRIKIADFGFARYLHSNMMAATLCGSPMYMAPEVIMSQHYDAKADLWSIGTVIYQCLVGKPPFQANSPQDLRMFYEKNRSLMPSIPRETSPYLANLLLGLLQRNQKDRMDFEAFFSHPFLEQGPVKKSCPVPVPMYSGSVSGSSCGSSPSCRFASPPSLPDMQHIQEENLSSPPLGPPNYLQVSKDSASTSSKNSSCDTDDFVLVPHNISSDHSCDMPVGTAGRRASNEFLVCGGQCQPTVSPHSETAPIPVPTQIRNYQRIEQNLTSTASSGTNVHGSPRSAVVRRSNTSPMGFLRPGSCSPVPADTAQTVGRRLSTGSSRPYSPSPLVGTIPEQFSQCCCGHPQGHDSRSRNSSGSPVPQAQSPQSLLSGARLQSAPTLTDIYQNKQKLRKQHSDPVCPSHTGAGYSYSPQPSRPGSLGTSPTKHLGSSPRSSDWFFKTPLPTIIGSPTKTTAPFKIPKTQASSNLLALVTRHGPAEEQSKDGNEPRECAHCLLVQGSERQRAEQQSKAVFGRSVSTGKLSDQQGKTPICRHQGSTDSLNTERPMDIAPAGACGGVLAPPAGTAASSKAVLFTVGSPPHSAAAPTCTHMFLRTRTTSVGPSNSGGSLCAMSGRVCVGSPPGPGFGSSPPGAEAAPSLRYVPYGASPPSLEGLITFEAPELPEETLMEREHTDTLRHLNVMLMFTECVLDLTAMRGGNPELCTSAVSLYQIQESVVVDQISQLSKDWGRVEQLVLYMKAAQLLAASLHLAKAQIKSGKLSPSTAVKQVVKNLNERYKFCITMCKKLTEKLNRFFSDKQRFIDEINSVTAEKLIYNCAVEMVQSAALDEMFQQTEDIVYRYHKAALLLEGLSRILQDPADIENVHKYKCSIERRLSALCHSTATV

binding [1]: binds
binding [2]: binds
Substance: HIC5, expressed in HEK293T cells (from UniProt O43294 1-461)
